Consider 79 compounds from paper PMC12040169 (PLOS Biology, 2025).

Each structure is given as a SMILES string. The list shows a part of the results.

This assay relates to T1, CTL2-GFP (C. trachomatis L2/434/Bu, GFP-expressing).
T1 construct: L2/434/Bu, GFP-expressing
On the set-up: species or system HeLa; Intracellular C. trachomatis growth in HeLa cells, bulk GFP fluorescence relative to DMSO. To be noted: bulk GFP, single well; 28.5 h, 10 µM; inhibitor.
Regarding `CCOC(=O)c1cccc(-c2ccc(OC)c(OC)c2)n1` [CBK149247], the “% of control remaining” value is on record as 115.206%. To `CCc1ccccc1Nc1nnc(SC(C)C(=O)N2CCCC2)s1` (stereo not shown) [CBK295197] belongs 158.399%; to `O=C(CN1CCN(S(=O)(=O)c2ccc(F)cc2)CC1)Nc1cccc(C(F)(F)F)c1` [CBK071925], 109.153%; to `COc1ccc(/C=C(\C)C(=O)Nc2c(OC)cc(F)cc2OC2CCNCC2)cc1OC` [CBK050353T], 104.892%. Consider `Cc1nnc(Sc2nc3ccccc3nc2N2CCCC2)s1` [CBK093751], for which the “% of control remaining” value turned out to be 100%. For `COC(=O)CN1C(=O)S/C(=C/c2ccc(OCc3cccc(C(=O)O)c3)c(Cl)c2)C1=O` [CBK265262], the “% of control remaining” value was determined as 117.696%.

In the case of `NCCCc1c(-c2ccc(Cl)cc2Cl)[nH][nH]c1=O` [CBK288367], the “% of control remaining” value turned out to be 129.843%. With `Cc1cc(C)nc(N2CCC(C(=O)NCc3ccc(Cl)cc3)CC2)n1` [CBK136319], the “% of control remaining” value amounted to 118.763%. As to `CCCc1c(O)nc(SCC(=O)NCc2ccco2)[nH]c1=O` [CBK073278], the “% of control remaining” value was 113.476%. Under `COc1cc(-c2cncc(NC(C)CCCC(C)(C)O)n2)cc(OC)c1OC` (stereo not shown) [CBK065481] stands 161.332%; under `CCc1c(C(=O)NCCn2ccnc2C)[nH]c2ccc(F)cc12` [CBK283314], 110.797%; under `CC1=NN(c2ccccc2)C(=O)C1C(=O)c1ccc(Br)cc1` (stereo not shown) [CBK067771], 111.928%. To `Cc1ccc(CS(=O)(=O)N(C)C2CCN(C)C(C)C2)c(F)c1` (stereo not shown) [CBK305484] belongs 147.944%. In the case of `CCCc1nn(CC(=O)NC2CCC2)c(=O)c2cc3ccsc3n12` [CBK284194], the “% of control remaining” value is 88.4279%.

For `CC(=O)Nc1ccc(N2C(=O)CC(N3CCN(Cc4ccc5c(c4)OCO5)CC3)C2=O)cc1` (stereo not shown) [CBK265217], the “% of control remaining” value came to 165.151%.

In the case of `CS(=O)(=O)c1nc2cccnc2s1` [CBK017260], the “% of control remaining” value is 84.9572%. As for `COc1ccc(N2C(=O)c3ccccc3NC2c2cccc(OCC(=O)Nc3ccccc3)c2)cc1` (stereo not shown) [CBK265406], the “% of control remaining” value was 85.2038%. `CCn1c(=O)n(CC(=O)NC2CCCCC2)c2cccnc21` [CBK283810]: the “% of control remaining” value came to 147.804%. Take `Cc1nc(-c2ccncc2)c2c(C)nn(-c3ccc(F)cc3)c2n1` [CBK288545]: the “% of control remaining” value was determined as 104.734%. On to `Cc1cc2nccc(C3CCCN(C(=O)OC(C)(C)C)C3)n2n1` (stereo not shown) [CBK284037], for which the “% of control remaining” value worked out at 86.97%.

For `Cn1c(=O)n(-c2cccc(Cl)c2)c(=O)n1C` [CBK116498], the “% of control remaining” value worked out at 104.419%. To `COC(=O)[C@H]1CN(C(=O)c2scnc2C)C[C@@H]1c1ccc(F)cc1` [CBK283520] belongs 71.1553%. For the compound `CCCCN1CCCC1c1c[nH]c2ccccc12` (stereo not shown) [CBK023773G], the “% of control remaining” value was determined as 122.819%.

On to `CCCCc1ccc(NC(=O)CSc2nnc(N)s2)c(C)c1` [CBK057659], for which the “% of control remaining” value was found to be 117.103%. To `Cc1nc2cc(Cl)ccc2n1CCO` [CBK110738] belongs 163.661%; to `c1cc(C2CCCCN2Cc2ccc3[nH]ccc3c2)nc(Nc2nccs2)n1` (stereo not shown) [CBK286109], 81.7878%.

In the case of `CCOc1ccc(S(=O)(=O)N(C)CC(=O)N2CCN(C)CC2)cc1Cl` [CBK269865], the “% of control remaining” value is reported as 147.236%. Under `O=C(CCCOc1ccccc1)Nc1ccc([N+](=O)[O-])cc1` [CBK263690] stands 97.407%; under `CN1CCOc2ccccc2C(=O)NC/C=C/CC2(CCCNC2)C1=O` (stereo not shown) [CBK292027], 109.959%; under `Cc1nnc(C(C)Sc2nnc(-c3ccc(F)cc3)n2CC2CCCO2)o1` (stereo not shown) [CBK298298], 101.923%. Under `Cc1ccc(Nc2cc(-c3cccc4cccnc34)ncn2)cc1NS(C)(=O)=O` [CBK091152] stands 153.119%; under `COc1cc(F)cc(OC2CCNCC2)c1NC(=O)Cc1cn(C)c2ccccc12` [CBK050245T], 115.84%. To `C=CCNC(=O)N1CC[C@H]2CC(=O)N(Cc3cccnc3)CC[C@H]2C1` [CBK288791] belongs 116.08%; to `CCP(CC)c1ccc(C(=O)O)cc1` [CBK019342B], 133.437%. In the case of `COc1ccc(Oc2cc3n(c(=O)n2)CCc2cc(OC)c(OC)cc2-3)cc1` [CBK291177], the “% of control remaining” value came to 144.232%. Under `CC1(C)CC(=O)C2=C(C1)CC1(C)CC(C)(C)CC2(Nc2ccccn2)C1` (stereo not shown) [CBK022425] stands 95.5464%; under `C[C@H](NC(=O)OC(C)(C)C)C(=O)NC[C@H]1CC[C@H](C(=O)O)CC1` [CBK286741], 145.257%; under `COC(=O)Nc1ncc(CN2CCc3ccccc3C2)s1` [CBK268376], 157.815%. In the case of `COc1ccc(-c2ccc(=O)n(CC(=O)NCc3ccc(C(=O)O)cc3)n2)c(F)c1` [CBK286776], the “% of control remaining” value was 115.494%. Under `COCCNc1nc(-c2ccc(F)cc2)cnc1N` [CBK063591] stands 132.843%. Consider `Nc1cccnc1OCCN1CCN(CC(=O)N2CCCCc3ccccc32)CC1` [CBK007764], for which the “% of control remaining” value was determined as 122.918%. Take `CNC(=O)N1CCN(CCOC(c2ccc(F)cc2)c2ccc(F)cc2)CC1` [CBK024948C]: the “% of control remaining” value was 136.312%. To `CN1CC2(CCCN(Cc3noc(-c4ccccc4)n3)C2)OC1=O` (stereo not shown) [CBK306952] belongs 128.256%. Under `O=C(O)Cc1sc(-c2ccc(Cl)cc2)nc1O` [CBK067730] stands 135.361%. In the case of `COC1C(O)C(CO)OC1n1cnc2c(N)nc(N)nc21` (stereo not shown) [CBK201241], the “% of control remaining” value is 128.924%. Under `Cc1ccc(C)c(C2CCCN2C(=O)c2ccc(=O)n(CC(=O)Nc3ccc(F)cc3)c2)c1` (stereo not shown) [CBK286495] stands 125.03%; under `CCCCOc1ccc(NC(=O)NCCc2cccs2)cc1` [CBK045202], 94.0866%. Under `Cc1c(C(=O)NCCN2CCC(C)CC2)oc2c1C(O)CC(C)(C)C2` (stereo not shown) [CBK282100] stands 147.031%. Under `CCCn1c(O)nnc1-c1cccnc1` [CBK074889] stands 112.902%. With `COc1ccc(NS(=O)(=O)c2ccc3c(c2)oc(=O)c2cc(S(=O)(=O)Nc4ccc(OC)cc4)ccc23)cc1` [CBK268439], the “% of control remaining” value is 84.7783%. With `N#CC1=C(N)n2c(s/c(=C\c3ccncc3)c2=O)=C(C#N)C1c1ccncc1` (stereo not shown) [CBK262563], the “% of control remaining” value came out at 100%. To `O=C(Nc1ccccn1)Nc1ccccn1` [CBK015518] belongs 110.226%. To `O=C1OC(c2ccc(N3C(=O)c4cccc5cccc(c45)C3=O)cc2)(c2ccc(N3C(=O)c4cccc5cccc(c45)C3=O)cc2)c2ccccc21` [CBK261845] belongs 90.1139%. Under `Cc1ccc(C(=O)NCCNc2cnccn2)cc1S(C)(=O)=O` [CBK246280] stands 106.048%. Take `COc1cccc(CC(=O)N(CCC#N)Cc2ccco2)c1` [CBK304859]: the “% of control remaining” value amounted to 98.6179%.

Regarding `Cc1cc(CC(=O)N/N=C/c2ccccc2)[nH]n1` [CBK007500], the “% of control remaining” value is reported as 122.735%. Take `CC(C)c1ccc(N2C(=O)N[C@@H]3CCN(C(=O)c4cccs4)[C@@H]3C2=O)cc1` [CBK289286]: the “% of control remaining” value is listed as 128.558%. Take `Cn1cnnc1SCC(=O)Nc1c(F)cccc1F` [CBK295150]: the “% of control remaining” value came to 143.004%. Under `O=C1NCCN(C(=O)COc2ccc(F)cc2F)C1Cc1ccccc1-c1cccnc1` (stereo not shown) [CBK285832] stands 113.33%; under `COc1ccc(C(=O)N2C[C@@H]3C[C@H](C2)c2ccc(NC(=O)C4CC4)c(=O)n2C3)cc1` [CBK289072], 144.206%. For `Cc1nc2ccccc2n1CC(=O)NCCN1CCCC1` [CBK267336], the “% of control remaining” value was found to be 109.597%. In the case of `C=C(C)Cn1c(SCC(C)C)nnc1-c1ccccc1OC(F)(F)F` [CBK200080], the “% of control remaining” value was 98.1426%. To `Cc1cc(C)n(CCNCc2cc(-c3ccc(F)cc3)c[nH]c2=O)n1` [CBK284694] belongs 154.406%; to `C(=C\c1ccccc1)/Cn1c(COc2ccccc2)nc2ccccc21` [CBK265535], 84.1182%; to `CC1CC(=O)N(c2cccc(C(=O)Nc3cccc(-c4cccc(F)c4)c3)c2)C1=O` (stereo not shown) [CBK285734], 111.094%.

Regarding `O=C(Cn1cnc(-c2nccs2)n1)N1CCCCCC1` [CBK306165], the “% of control remaining” value stood at 115.628%. For the compound `COc1ccc(CN2CCC[C@H]2c2nc(-c3ccc(OC)nc3)no2)c(O)c1` [CBK288898], the “% of control remaining” value came out at 124.76%. In the case of `CCCn1c(C)cc2cc(NC(=O)Cn3ccnc3)ccc21` [CBK281549], the “% of control remaining” value is 124.905%. Under `COc1c(C(=O)Nc2ccc(CN3CCOCC3)cc2)cc2ccccc2c1Br` [CBK268593] stands 120.204%; under `Cc1cc(C)c(OCC(=O)Nc2ccc3oc(-c4cncc(Br)c4)nc3c2)c(Cl)c1` [CBK266634], 122.209%. To `CCN(Cc1ccco1)C(=O)Cn1c(=O)n(C)c2ncccc21` [CBK282390] belongs 111.748%; to `CCOc1ccccc1CNc1ccc(C2c3ccsc3CCN2C(C)=O)cc1` (stereo not shown) [CBK286459], 105.891%; to `Nc1cccc(-c2cc(Nc3ccc(Cl)cc3)ncn2)c1` [CBK090886], 97.5348%. For the compound `c1ccc(Nc2nc(-c3cccs3)cn3ccnc23)cc1` [CBK066513], the “% of control remaining” value was determined as 93.2613%. To `CC1CCCN(C(=S)NC2CC3CCC2C3)C1` (stereo not shown) [CBK085999] belongs 140.142%; to `COc1ccc(NC(=O)Cc2csc(NC(=O)c3ccco3)n2)c(OC)c1` [CBK287649], 101.192%; to `CCCn1c(SCC(=O)NC2CCN(CC)CC2)nc2cc(Cl)ccc21` [CBK305027], 82.5074%. To `CCC(=O)N1CCC[C@@H]1Cn1nc(-c2cccs2)ccc1=O` [CBK282304] belongs 127.732%; to `Cc1oc(S(=O)(=O)N(C)C)cc1C(=O)O` [CBK113681], 95.9158%.
